Measurements: patent WO2018095932A1
Results are given in words; binding and its absence hold for the method and conditions named. Some binding calls cover weakened binding; strength is not graded here.

Protein sequences, listed by entry. Tags and fused reporters are not part of them. Lines headed by an entry give the natural chain unless they say otherwise; changes in a name come on top.
UniProt P11362: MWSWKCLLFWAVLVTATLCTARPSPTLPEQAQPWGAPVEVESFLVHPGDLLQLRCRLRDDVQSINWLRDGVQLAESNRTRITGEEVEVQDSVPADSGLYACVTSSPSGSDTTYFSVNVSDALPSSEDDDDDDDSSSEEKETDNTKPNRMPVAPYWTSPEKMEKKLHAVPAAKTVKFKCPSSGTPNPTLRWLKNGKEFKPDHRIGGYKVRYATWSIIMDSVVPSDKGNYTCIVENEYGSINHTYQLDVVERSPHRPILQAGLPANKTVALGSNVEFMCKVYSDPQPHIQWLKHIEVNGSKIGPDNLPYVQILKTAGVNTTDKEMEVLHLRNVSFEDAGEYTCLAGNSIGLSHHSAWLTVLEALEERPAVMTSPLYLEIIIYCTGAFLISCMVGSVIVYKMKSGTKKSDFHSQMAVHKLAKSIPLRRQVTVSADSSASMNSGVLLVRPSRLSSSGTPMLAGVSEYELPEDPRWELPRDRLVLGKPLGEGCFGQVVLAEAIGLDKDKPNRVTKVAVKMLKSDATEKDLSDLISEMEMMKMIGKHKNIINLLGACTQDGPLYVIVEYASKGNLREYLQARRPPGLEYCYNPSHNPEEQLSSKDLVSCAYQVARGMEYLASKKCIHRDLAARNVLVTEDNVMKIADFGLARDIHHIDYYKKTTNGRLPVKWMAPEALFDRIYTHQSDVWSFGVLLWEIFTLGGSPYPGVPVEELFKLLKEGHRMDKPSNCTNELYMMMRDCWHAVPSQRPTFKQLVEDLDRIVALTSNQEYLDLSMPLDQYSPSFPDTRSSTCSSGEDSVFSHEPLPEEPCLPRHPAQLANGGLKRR

Key:
[1] = molecular target: Human FGFR1 D2-His6 (human) (UniProt P11362); assay: SPR (data not shown)
[2] = molecular target: human FGFR1b-IIIb extracellular domain with a His tag (human); assay: SPR
[3] = molecular target: human FGFR1b-IIIc extracellular domain with a His tag (human) (UniProt P11362); assay: SPR
[4] = molecular target: Human FGFR1 D2-His6 (human) (UniProt P11362); assay: ELISA
[5] = molecular target: human FGFR1b-IIIb extracellular domain with a His tag (human); assay: ELISA
[6] = molecular target: human FGFR1b-IIIc extracellular domain with a His tag (human) (UniProt P11362); assay: ELISA
[7] = molecular target: human FGFR1b-IIIb extracellular domain with a His tag (human); assay: SPR (BIAcore), IgG format

Row | binding [1] | binding [2] | binding [3] | binding [4] | binding [5] | binding [6] | binding [7] | Binder
1 | binds | binds | binds | binds | binds | binds | – | mAb #A08 (#A08 hit), anti-FGFR1 antibody (antibody, V domains shown) VH: EVQLQESGPGLVKPSGTLSLTCAVSGGSISSNNWWSWVRQPPGKGLEWIGEIYHSGSTSYNPSLKSRVTISVDKSKNQFSLKLNSVTAADTAVYYCARGTDWFDPWGQGTLVTVSS VL: QAVLTQPPSVSVAPGQTARITCGGNNIGSESVHWYQQKPGQAPVLVVYDDSDRPSGIPERFSGSNSGNTATLTISRVEAGDEADYYCQVWDSTSDHRVFGGGTKLTVL
2 | – | – | – | – | – | – | binds | clone #D02 as IgG (bivalent) (antibody, V domains shown) VH: QVQLQESGPGLVKPSGTLSLTCAVSGGSISSNNWWSWVRQPPGKGLEWIGEIYHSGSTSYNPSLKSRVTISVDKSKNQFSLKLSSVTAADTAVYYCARGTDWIDTWGQGTLVTVSS VL: SYVLTQPPSVSVAPGQTARITCGGNNIGSESVHWYQQKPGQAPVLVVYDDSDRPSGIPERFSGSNSGNTATLTISRVEAGDEADYYCQVWDSTSDHRVFGGGTKLTVLG
3 | – | – | – | – | – | – | binds | clone #G04 as IgG (bivalent) (antibody, V domains shown) VH: QVQLQESGPGLVKPSGTLSLTCAVSGGSISSNNWWSWVRQPPGKGLEWIGEIYHSGSTSYNPSLKSRVTISVDKSKNQFSLKLSSVTAADTAVYYCARGTDWYDLWGQGTLVTVSS VL: SYVLTQPPSVSVAPGQTARITCGGNNIGSESVHWYQQKPGQAPVLVVYDDSDRPSGIPERFSGSNSGNTATLTISRVEAGDEADYYCQVWDSTSDHRVFGGGTKLTVLG
